At least one structure is not confirmed: it was looked up by name or label, or the drawing left a doubt.
Assays:
[1] = test system: NF-κB; experiment: ChIP-qPCR for NF-κB binding at CXCL super enhancer and CXCL1 promoter sites in LSECs; assay type: cell-based, human; settings: with and without TNFα, after inhibitor pretreatment, FIG. 20C, 20D
Protocol: FIG. 20: Bromodomain inhibitors suppress expression of CXCLs by inhibition of transcription factor binding at CXCL super enhancer and promoter sites. A) LSECs were pretreated with iBET151 ([…]) (n=4). CXCL1, 6, and 8 expression levels were assessed by qPCR. Expression levels were normalized to basal condition and log10 fold change values were plotted. One-way matched-pairs ANOVA analysis was performed with Post-hoc Dunnett's multiple comparison correction. B and C) ChIP-qPCR assays for BRD4 binding (B) or NF-κB binding (C) with and without TNFα stimulation was assessed at CXCL super-enhancer and CXCL1 promoter sites after pretreatment with iBET151. D and E) Same experiments were repeated with Celastrol. Enrichment for either CXCL1 promoter (Promoter) or CXCL super enhancer (Super Enhancer) sequence was examined. Sequence enrichment was normalized to input. Box plots show […] quartiles and third quartiles; whiskers show maximum and minimum values. Two-way matched-pairs ANOVA was performed on log-transformed input percentage, with Post-hoc Sidak's multiple comparisons correction (n=3).
LSECs were treated with appropriate conditions as outlined separately, and underwent CHIP according to Millipore High-Sens ChIP kit (Millipore MAGNA0025) manufacture protocols. […]

[2] = molecular target: T1, BRD4 (Homo sapiens, UniProt O60885); experiment: ChIP-qPCR for BRD4 binding at CXCL super enhancer and CXCL1 promoter sites in LSECs; assay type: cell-based; settings: with and without TNFα, after inhibitor pretreatment, FIG. 20B, 20E
T1 construct: Soluble chromatin was aliquoted and immunoprecipitated with magnetic beads with antibodies for BRD4 (Abcam ab128874); host or cells: primary human liver sinusoidal endothelial cells (LSECs)

SMILES: CC1=C(O)C(=O)C=C2C1=CC=C1[C@@]2(C)CC[C@@]2(C)[C@@H]3C[C@](C)(C(=O)O)CC[C@]3(C)CC[C@]12C [celastrol]
- NF-κB binding at CXCL super enhancer and CXCL1 promoter sites (ChIP) [1]: decreased binding
- BRD4 occupancy/binding at CXCL super enhancer and CXCL1 promoter sites (ChIP) [2]: decreased binding

— US20230093131A1, “ASSESSING AND TREATING ALCOHOL-ASSOCIATED LIVER DISEASE” (Mayo Foundation for Medical Education and Research, priority 2020, published 2023)
